In article PMC11792593 one finds binding data, which are given here for one substance.

The chains behind the UniProt entries cited, without tags or fusion partners.
UniProt Q04206: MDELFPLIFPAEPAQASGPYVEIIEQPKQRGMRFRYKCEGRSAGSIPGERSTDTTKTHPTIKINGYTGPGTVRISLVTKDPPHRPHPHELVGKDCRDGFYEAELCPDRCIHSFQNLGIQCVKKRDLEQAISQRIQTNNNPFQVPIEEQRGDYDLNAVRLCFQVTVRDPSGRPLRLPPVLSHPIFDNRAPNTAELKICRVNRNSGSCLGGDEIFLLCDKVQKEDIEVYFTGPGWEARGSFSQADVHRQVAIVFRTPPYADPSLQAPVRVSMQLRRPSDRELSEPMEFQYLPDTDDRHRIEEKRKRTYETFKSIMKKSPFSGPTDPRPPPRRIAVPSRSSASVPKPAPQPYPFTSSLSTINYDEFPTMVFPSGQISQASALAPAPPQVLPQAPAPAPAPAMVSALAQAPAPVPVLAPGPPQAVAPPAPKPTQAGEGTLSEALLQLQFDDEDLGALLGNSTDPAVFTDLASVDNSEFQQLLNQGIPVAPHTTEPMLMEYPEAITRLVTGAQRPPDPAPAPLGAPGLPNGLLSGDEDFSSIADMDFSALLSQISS

The target of experiment [1] is T1, EDF1 (endogenous, NC/control neuroblastoma cells) (human (endogenous in NB cell lines)) (UniProt O60869).
T1 sequence: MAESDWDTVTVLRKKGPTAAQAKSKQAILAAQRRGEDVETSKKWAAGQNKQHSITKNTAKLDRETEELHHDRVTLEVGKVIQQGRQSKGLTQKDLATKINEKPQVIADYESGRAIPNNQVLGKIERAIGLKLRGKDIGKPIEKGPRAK
Kind of experiment: affinity purification with mass spectrometry; EDF1-binding proteins immunoprecipitated by anti-EDF1 antibody from NB cells (NC and EDF1-overexpressed), followed by mass spectrometry.

Experiment [2] deals with T2, EDF1, full-length, overexpressed in NB cells (pcDNA3.1) (human) (UniProt O60869).
T2 sequence: T1 sequence
The description is as above.

These are yes or no findings as the source states them, for the method shown. Binding seen in cells or lysates may run through a third protein. Here binding means that the protein was enriched with, or labelled near, the bait; the list need not be complete.

Take “NF-κB p65/RelA (from UniProt Q04206 1-551)”: the binding entry in experiment [1] and in experiment [2] was “binds” each time.
